Results on 13 compounds are retold here after PubChem BioAssay AID248 (DTP/NCI, 2004).

The assay has as its system L1210 leukemia ip in BDF1 mice, survival T/C. The assay can be described thus: NCI In Vivo Anticancer Drug Screen. Data for tumor model L1210 Leukemia (intraperitoneal) in B6D2F1 (BDF1) mice. The settings on record: T/C endpoint: mean survival time, higher T/C = longer survival.
The mark [1] stands for this setting: dose: 200.0 mg/kg/injection, schedule: Q01DX001 (ip), vehicle: carboxymethylcellulose (CMC).
[2] abbreviates: dose: 400.0 mg/kg/injection, schedule: Q01DX001 (ip), vehicle: saline.
The mark [3] stands for this setting: dose: 400.0 mg/kg/injection, schedule: Q04DX003 (ip), vehicle: saline with Tween-80.

The list is a part of this screen's results and no random one: it is rich in T/C values a quarter to a half above the control, in often repeated tests (any T/C) and in doses without a T/C. Further doses and runs are listed elsewhere. T/C: endpoint of the treated group in % of that of the vehicle group. Some doses have a count of surviving animals in place of a T/C: the source files T/C as zero there, which appears to mark a toxic dose or a test without result, not a measured value. Some doses without a T/C left all or most animals alive at the check, yet need not have been tolerated: the source hardly ever lists a survival T/C far under the control, and the zero likely stands for such cases as well. Counts of survivors are from the toxicity check (mostly the fifth day) where no day follows; animals may have died later. Schedule codes are those of the source, taken here to give the interval after Q, in days (D) or hours (H), and the number of doses after X. Some schedule codes hold Z or #, which are not explained here. Where survival is the endpoint, the PubChem record calls one and a half times the control and up active, and a quarter to a half above the control has no call in these data; cut-offs in other NCI protocols can differ.

With `Cc1n(CC(C)C)c2c([n+]1C)C(=O)c1ccccc1C2=O`, the survivor count (dose: 0.5 mg/kg/injection, schedule: Q01DX015 (ip), vehicle: saline) is listed as 3 of 6; the survivor count (dose: 2.0 mg/kg/injection, schedule: Q01DX015 (ip), vehicle: saline) was 4 of 6; the survivor count (dose: 4.0 mg/kg/injection, schedule: Q01DX015 (ip), vehicle: saline) is 0 of 6; the survivor count (dose: 4.0 mg/kg/injection, schedule: Q04DX003 (ip), vehicle: saline) is given as 5 of 6; the survivor count (dose: 5.0 mg/kg/injection, schedule: Q01DX001 (ip), vehicle: carboxymethylcellulose (CMC)) is listed as 0 of 4; the survivor count (dose: 8.0 mg/kg/injection, schedule: Q01DX015 (ip), vehicle: saline) is given as 0 of 6. Besides, the survivor count by setting is: (dose: 8.0 mg/kg/injection, schedule: Q04DX003 (ip), vehicle: saline) 0 of 6; (dose: 10.0 mg/kg/injection, schedule: Q01DX001 (ip), vehicle: carboxymethylcellulose (CMC)) 0 of 4; (dose: 16.0 mg/kg/injection, schedule: Q04DX003 (ip), vehicle: saline) 0 of 6; (dose: 20.0 mg/kg/injection, schedule: Q01DX001 (ip), vehicle: carboxymethylcellulose (CMC)) 0 of 4; (dose: 40.0 mg/kg/injection, schedule: Q01DX001 (ip), vehicle: carboxymethylcellulose (CMC)) 0 of 4; (dose: 50.0 mg/kg/injection, schedule: Q01DX001 (ip), vehicle: carboxymethylcellulose (CMC)) 0 of 4. Also, the survivor count is 0 of 4 (dose: 80.0 mg/kg/injection, schedule: Q01DX001 (ip), vehicle: carboxymethylcellulose (CMC)); 0 of 4 (dose: 100.0 mg/kg/injection, schedule: Q01DX001 (ip), vehicle: carboxymethylcellulose (CMC)); 0 of 4 under setting [1]; 0 of 4 (dose: 400.0 mg/kg/injection, schedule: Q01DX001 (ip), vehicle: carboxymethylcellulose (CMC)).
In the case of `C/C(=N/N)c1ccc(Br)cc1`, the T/C is, setting by setting: (dose: 15.0 mg/kg/injection, schedule: Q01DX009 (ip), vehicle: saline) 132 % of control; (dose: 30.0 mg/kg/injection, schedule: Q01DX009 (ip), vehicle: saline) 126 % of control. The survivor count reads like this: (dose: 60.0 mg/kg/injection, schedule: Q01DX009 (ip), vehicle: saline) 0 of 6; (dose: 100.0 mg/kg/injection, schedule: Q01DX001 (ip), vehicle: saline) 2 of 6; (dose: 120.0 mg/kg/injection, schedule: Q01DX009 (ip), vehicle: saline) 0 of 6; (dose: 200.0 mg/kg/injection, schedule: Q01DX001 (ip), vehicle: saline) 0 of 6; (dose: 240.0 mg/kg/injection, schedule: Q01DX009 (ip), vehicle: saline) 0 of 6; under setting [2], 0 of 6.
Take `C/C(=N\N=C(/C)c1ccc2ccccc2c1)c1ccc2ccccc2c1`: the survivor count under setting [3] was 3 of 3.
Regarding `NC(N)=Nc1ccc(-c2ccc(N=C(N)N)cc2)cc1`, the survivor count (dose: 400.0 mg/kg/injection, schedule: Q01DX Z (oral), vehicle: saline) is 1 of 6.
In the case of `CC(=O)NC(C)(C)Cc1ccccc1`, the survivor count under setting [1] is on record as 3 of 4.
Regarding `O=C1[O][Hg][c]2cccc3cccc1c23`, the survivor count is reported as 2 of 6 (dose: 20.0 mg/kg/injection, schedule: Q04DX003 (ip), vehicle: saline with Tween-80); 0 of 6 (dose: 100.0 mg/kg/injection, schedule: Q04DX003 (ip), vehicle: saline with Tween-80); 0 of 6 (dose: 200.0 mg/kg/injection, schedule: Q04DX003 (ip), vehicle: saline with Tween-80); 0 of 6 under setting [3].
Turning to `O=C(O)C(Cc1ccsc1)C(=O)O`, under setting [2], the survivor count is reported as 0 of 4.
Turning to `CCC1C(CC(=O)O)=C(C)NC(C)=C1CC(=O)O`, the survivor count (dose: 400.0 mg/kg/injection, schedule: Q01DX009 (ip), vehicle: Klucel (hydroxypropylcellulose) (HPC)) is given as 1 of 6.
On to `c1csc(CNCCN2CC2)c1`, for which the survivor count reads like this: (dose: 5.0 mg/kg/injection, schedule: Q01DX009 (ip), vehicle: saline) 0 of 6; (dose: 10.0 mg/kg/injection, schedule: Q01DX009 (ip), vehicle: saline) 0 of 6; (dose: 10.0 mg/kg/injection, schedule: Q04DX003 (ip), vehicle: Klucel (hydroxypropylcellulose) (HPC)) 3 of 6; (dose: 20.0 mg/kg/injection, schedule: Q04DX003 (ip), vehicle: Klucel (hydroxypropylcellulose) (HPC)) 0 of 6; (dose: 40.0 mg/kg/injection, schedule: Q04DX003 (ip), vehicle: Klucel (hydroxypropylcellulose) (HPC)) 0 of 6; (dose: 100.0 mg/kg/injection, schedule: Q04DX003 (ip), vehicle: Klucel (hydroxypropylcellulose) (HPC)) 0 of 6. Moreover, the survivor count is, setting by setting: (dose: 200.0 mg/kg/injection, schedule: Q04DX003 (ip), vehicle: Klucel (hydroxypropylcellulose) (HPC)) 0 of 6; (dose: 400.0 mg/kg/injection, schedule: Q04DX003 (ip), vehicle: Klucel (hydroxypropylcellulose) (HPC)) 0 of 6.
`CC1(C)C2CCC([CH2][Hg][Cl])C1C2` (configuration not stated): the survivor count is, setting by setting: (dose: 40.0 mg/kg/injection, schedule: Q01DX001 (ip), vehicle: Klucel (hydroxypropylcellulose) (HPC)) 0 of 6; (dose: 80.0 mg/kg/injection, schedule: Q01DX001 (ip), vehicle: Klucel (hydroxypropylcellulose) (HPC)) 0 of 6; (dose: 100.0 mg/kg/injection, schedule: Q01DX001 (ip), vehicle: Klucel (hydroxypropylcellulose) (HPC)) 0 of 6; (dose: 100.0 mg/kg/injection, schedule: Q04DX003 (ip), vehicle: other) 0 of 6; (dose: 200.0 mg/kg/injection, schedule: Q01DX001 (ip), vehicle: Klucel (hydroxypropylcellulose) (HPC)) 0 of 6; (dose: 200.0 mg/kg/injection, schedule: Q04DX003 (ip), vehicle: other) 1 of 6. Moreover, the survivor count by setting is: (dose: 400.0 mg/kg/injection, schedule: Q01DX001 (ip), vehicle: Klucel (hydroxypropylcellulose) (HPC)) 0 of 6; (dose: 400.0 mg/kg/injection, schedule: Q04DX003 (ip), vehicle: other) 0 of 6.
`[O-]c1n[n+](C2CCCCC2)no1`: the survivor count runs as follows: (dose: 20.0 mg/kg/injection, schedule: Q01DX001 (ip), vehicle: other) 2 of 4; (dose: 40.0 mg/kg/injection, schedule: Q01DX001 (ip), vehicle: other) 0 of 4; (dose: 80.0 mg/kg/injection, schedule: Q01DX001 (ip), vehicle: other) 0 of 4; (dose: 100.0 mg/kg/injection, schedule: Q01DX001 (ip), vehicle: other) 0 of 4; (dose: 200.0 mg/kg/injection, schedule: Q01DX001 (ip), vehicle: other) 0 of 4; (dose: 400.0 mg/kg/injection, schedule: Q01DX001 (ip), vehicle: other) 0 of 4.
With `COC1CCC2CCN(C)C(Cc3ccc(Oc4ccc(CC5C6CC(OC)CCC6CCN5C)cc4)cc3)C2C1` (configuration not stated), the survivor count (dose: 1.56 mg/kg/injection, schedule: Q01DX009 (ip), vehicle: saline with Tween-80) was 3 of 3; the survivor count (dose: 100.0 mg/kg/injection, schedule: Q04DX002 (ip), vehicle: saline with Tween-80) is recorded as 0 of 3; the survivor count (dose: 200.0 mg/kg/injection, schedule: Q04DX002 (ip), vehicle: saline with Tween-80) is reported as 0 of 3; the survivor count (dose: 400.0 mg/kg/injection, schedule: Q04DX002 (ip), vehicle: saline with Tween-80) is listed as 0 of 3.
Consider `CC(C)(C)C1CCC(C(=O)O)CC1` (configuration not stated), for which the survivor count reads like this: (dose: 400.0 mg/kg/injection, schedule: Q01DX009 (ip), vehicle: saline with Tween-80) 6 of 6; (dose: 400.0 mg/kg/injection, schedule: Q04DX003 (ip), vehicle: gum acacia) 1 of 6; under setting [3], 6 of 6.
